Values quoted from earlier work, collected in patent US20110028420A1, “Regression of Established Atherosclerotic Plaques, and Treating Sudden-Onset Asthma Attacks, using PARP Inhibitors” (priority 2008, published 2011).
At least one structure is not confirmed: it was looked up by name or label, or the drawing left a doubt.

The chains behind the UniProt entries cited, without tags or fusion partners. Residues count along the entry.
UniProt P11103, 2-1013 limits assumed: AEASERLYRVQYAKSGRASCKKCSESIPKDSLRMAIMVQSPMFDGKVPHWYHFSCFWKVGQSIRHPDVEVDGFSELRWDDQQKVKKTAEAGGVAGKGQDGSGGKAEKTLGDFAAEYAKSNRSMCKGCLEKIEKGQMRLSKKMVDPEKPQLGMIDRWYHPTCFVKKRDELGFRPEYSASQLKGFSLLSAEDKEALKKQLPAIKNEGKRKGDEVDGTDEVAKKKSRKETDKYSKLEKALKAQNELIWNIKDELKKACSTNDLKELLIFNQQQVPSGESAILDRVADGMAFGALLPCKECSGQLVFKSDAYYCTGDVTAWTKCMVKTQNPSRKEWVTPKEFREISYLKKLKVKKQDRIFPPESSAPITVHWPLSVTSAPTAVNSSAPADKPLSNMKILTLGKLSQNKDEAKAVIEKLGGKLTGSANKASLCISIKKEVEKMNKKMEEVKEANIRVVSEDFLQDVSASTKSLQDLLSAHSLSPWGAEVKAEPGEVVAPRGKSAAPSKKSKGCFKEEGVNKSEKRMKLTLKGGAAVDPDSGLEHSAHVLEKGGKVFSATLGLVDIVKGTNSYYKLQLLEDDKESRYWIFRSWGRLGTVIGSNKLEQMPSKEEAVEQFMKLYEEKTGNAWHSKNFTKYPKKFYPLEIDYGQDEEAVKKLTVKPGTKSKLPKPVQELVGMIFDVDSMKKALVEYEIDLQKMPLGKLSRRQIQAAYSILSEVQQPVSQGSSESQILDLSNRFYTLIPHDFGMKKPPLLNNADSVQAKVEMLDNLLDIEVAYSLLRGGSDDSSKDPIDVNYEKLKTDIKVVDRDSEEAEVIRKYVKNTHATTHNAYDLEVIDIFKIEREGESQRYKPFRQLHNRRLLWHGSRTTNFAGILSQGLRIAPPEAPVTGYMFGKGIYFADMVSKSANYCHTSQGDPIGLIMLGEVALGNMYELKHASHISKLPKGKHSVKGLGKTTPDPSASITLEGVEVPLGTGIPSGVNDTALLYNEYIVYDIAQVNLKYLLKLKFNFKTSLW

Tests used:
PARP1 = target: T1, PARP1 (Mus musculus, UniProt P11103); conditions: cortical neuron cultures; cited from earlier work
T1 construct: host or cells: cortical neuron cultures

asthma patients = conditions: twice-daily for eight weeks; cited from earlier work

C[C@H]1c2cccc(O)c2C(=O)C2=C(O)[C@]3(O)C(=O)C(C(N)=O)=C(O)[C@@H](N(C)C)[C@@H]3[C@@H](O)[C@@H]21 [doxycycline]
Rank order of potency of tetracycline derivatives (PARP1): minocycline>doxycycline>demeclocycline>chlortetracycline

CN(C)c1ccc(O)c2c1C[C@H]1C[C@H]3[C@H](N(C)C)C(O)=C(C(N)=O)C(=O)[C@@]3(O)C(O)=C1C2=O [minocycline]
Induced PARP1 activation (PARP1): inhibited | Rank order of potency of tetracycline derivatives (PARP1): minocycline>doxycycline>demeclocycline>chlortetracycline | Reduction in mean daily prednisone use versus placebo (asthma patients): 30%
